Results reported in US5034510A, “Antibacterial substance” (Shin-Etsu Chemical Co., Ltd., priority 1986, dated 1991).
Converted amounts (≈) assume the structure as drawn. At least one peptide structure holds a part that was inferred or is arguable (an end, a ring closure or a residue). Where a SMILES comes first, the peptide text is derived from it. The star is where a group is joined. NHOctadecyl = CCCCCCCCCCCCCCCCCCN*; NHOctyl = CCCCCCCCN*

Tests used:
Experiment in all cases: MIC by broth dilution method
Type in all cases: cell-based
[1] = tested on: Staphylococcus aureus FDA 209P; settings: S. aure 209-P
Experimental: (§1) Using the substances finally obtained in the above-described Experiments 35 to 42 and having no blocking group, MIC (minimum growth inhibitory concentration) against various bacteria was examined according to the broth dilution method, and the antibacterial activities were evaluated.
(§2) H--(1-23)--NH(CH2)7 CH3 was synthesized according to the same procedures as described in Experiments 1 to 35, and the antibacterial activities thereof against various bacteria were examined in the same manner as in Example 1.

[2] = tested on: Pseudomonas aeruginosa 99; settings: P. aeru 99
Experimental: as §1, §2

[3] = tested on: Escherichia coli NIHJ; settings: E. coli NIHJ
Experimental: as §1, §2

[4] = tested on: Proteus mirabilis 129; settings: P. mira 129
Experimental: as §1, §2

[5] = tested on: E. coli JC-2
Experimental: as §1, §2

[6] = tested on: Pseudomonas aeruguinosa OT 97; settings: P. aeru OT 97
Experimental: as §1, §2

[7] = tested on: Salmonella enteritidis IFO 3313; settings: S. ent 3313
Experimental: as §1, §2

[8] = tested on: Escherichia coli D 21
Experimental: as §1, §2

[9] = tested on: Enterobacter aerogenes IFO 13545; settings: E. aero 13534
Experimental: as §1, §2

[10] = tested on: Micrococcus luteus ML II; settings: M. lute ML II
Experimental: as §1, §2

[11] = tested on: Proteus mirabilis 1287; settings: P. mira 1287
Experimental: as §1, §2

[12] = tested on: Bacillus subtilis PCI 219; settings: B. sub 219
Experimental: as §1, §2

[13] = tested on: Streptococcus hemolyticus; settings: S. hemo
Experimental: as §1, §2

[14] = tested on: Pseudomonas aeruginosa; settings: P. aeru
Experimental: as §1, §2

## CCCCCCCCCCCCCCCCCCNC(=O)CNC(=O)[C@H](CC(=O)O)NC(=O)[C@H](CCCNC(=N)N)NC(=O)[C@@H](NC(=O)[C@H](CC(N)=O)NC(=O)[C@H](CCCNC(=N)N)NC(=O)CNC(=O)[C@H](CCSC)NC(=O)[C@H](CCCCN)NC(=O)[C@H](CCC(=O)O)NC(=O)[C@@H](NC(=O)[C@H](CCCCN)NC(=O)[C@H](CCCCN)NC(=O)[C@H](Cc1ccccc1)NC(=O)[C@@H](NC(=O)[C@H](CCCCN)NC(=O)[C@H](Cc1c[nH]c2ccccc12)NC(=O)[C@@H](N)CCCNC(=N)N)[C@@H](C)CC)[C@@H](C)CC)[C@@H](C)CC [H-(1-18)-NHC18] (H-RWKIFKKIEKMGRNIRDG-NHOctadecyl)
[1]; Table 1
  MIC: -- (Symbol "--" is meant to be MIC > 250 mcg/ml)
[2]; Table 1
  MIC: -- (Symbol "--" is meant to be MIC > 250 mcg/ml)
[3]; Table 1
  MIC: -- (Symbol "--" is meant to be MIC > 250 mcg/ml)
[4]; Table 1
  MIC: -- (Symbol "--" is meant to be MIC > 250 mcg/ml)
[5]; Table 1
  MIC: -- (Symbol "--" is meant to be MIC > 250 mcg/ml)
[6]; Table 1
  MIC: -- (Symbol "--" is meant to be MIC > 250 mcg/ml)
[7]; Table 1
  MIC: -- (Symbol "--" is meant to be MIC > 250 mcg/ml)
[8]; E. coli D 21, Table 1
  MIC: -- (Symbol "--" is meant to be MIC > 250 mcg/ml)
[9]; Table 1
  MIC: -- (Symbol "--" is meant to be MIC > 250 mcg/ml)
[10]; Table 1
  MIC: -- (Symbol "--" is meant to be MIC > 250 mcg/ml)
[11]; Table 1
  MIC: -- (Symbol "--" is meant to be MIC > 250 mcg/ml)
[12]; Table 1
  MIC: -- (Symbol "--" is meant to be MIC > 250 mcg/ml)
[13]; Table 1
  MIC: -- (Symbol "--" is meant to be MIC > 250 mcg/ml)
[14]; Table 1
  MIC: -- (Symbol "--" is meant to be MIC > 250 mcg/ml)

## CCCCCCCCNC(=O)CNC(=O)[C@H](C)NC(=O)[C@H](CCCCN)NC(=O)[C@@H](NC(=O)[C@@H](NC(=O)CNC(=O)[C@H](CC(=O)O)NC(=O)[C@H](CCCNC(=N)N)NC(=O)[C@@H](NC(=O)[C@H](CC(N)=O)NC(=O)[C@H](CCCNC(=N)N)NC(=O)CNC(=O)[C@H](CCSC)NC(=O)[C@H](CCCCN)NC(=O)[C@H](CCC(=O)O)NC(=O)[C@@H](NC(=O)[C@H](CCCCN)NC(=O)[C@H](CCCCN)NC(=O)[C@H](Cc1ccccc1)NC(=O)[C@@H](NC(=O)[C@H](CCCCN)NC(=O)[C@H](Cc1c[nH]c2ccccc12)NC(=O)[C@@H](N)CCCNC(=N)N)[C@@H](C)CC)[C@@H](C)CC)[C@@H](C)CC)[C@@H](C)CC)C(C)C [H-(1-23)NH(CH2)7 CH3, H--(1-23)--NH(CH2)7 CH3] (H-RWKIFKKIEKMGRNIRDGIVKAG-NHOctyl)
[1]; Table 2
  MIC: 2 µg/mL (≈ 0.7 µM)
[2]; Table 2
  MIC: 2 µg/mL (≈ 0.7 µM)
[3]; Table 2
  MIC: 2 µg/mL (≈ 0.7 µM)
[4]; Table 2
  MIC: 16 µg/mL (≈ 5.6 µM)
[5]; Table 2
  MIC: 2 µg/mL (≈ 0.7 µM)
[6]; Table 2
  MIC: 4 µg/mL (≈ 1.4 µM)
[7]; Table 2
  MIC: 2 µg/mL (≈ 0.7 µM)
[8]; E. coli D, Table 2
  MIC: 2 µg/mL (≈ 0.7 µM)
[9]; Table 2
  MIC: 2 µg/mL (≈ 0.7 µM)
[10]; Table 2
  MIC: 2 µg/mL (≈ 0.7 µM)
[11]; Table 2
  MIC: 16 µg/mL (≈ 5.6 µM)
[12]; Table 2
  MIC: 2 µg/mL (≈ 0.7 µM)
[13]; Table 2
  MIC: -- (Symbol "--" is meant to be MIC > 250 mcg/ml)
[14]; Table 2
  MIC: 2 µg/mL (≈ 0.7 µM)
